Assay results published in PubChem BioAssay AID1688 (National Center for Advancing Translational Sciences (NCATS), 2009).
Hit rate of the full screen: of about 220,000 compounds, about 2,400 (1.1%) were called active. This list was built around the results that the source calls inconclusive (neither active nor inactive); the mix of calls is not that of the screen. The call rests on the fitted dose curve; in most records, active means well fitted inhibition curve with a large enough effect; inconclusive means small, poorly fitted or top-dose-only effect, or effect the other way; inactive means no such curve, though single readings can be large or run the other way. Where the call is inconclusive, the potency comes from a doubtful curve fit.

Assay: qHTS Multiplex Assay to Identify Dual Action Probes in a Cell Model of Huntington: Aggregate Formation (GFP); further: nearly all actives have a fitted effect of over 60% in size
Settings: PC12 HttQ103-GFP aggregates, Acumen cytometry, 40 h; activity change, negative = inhibition: at 46.1 µM (top of the series) unless noted
Outline: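 PC12 cells with ecdysone-inducible HTT exon1 Q103-GFP, induced by 100 nM tebufenozide, given compounds in a concentration series. GFP aggregates (1–25 um, 6 SD above background) counted in lysates by laser-scanning cytometry, 488 nm excitation.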
On the % scale 0 is the no-effect control and ±100 the full control effect; potency means the concentration at half of the fitted maximal effect.

Q: Which Potency does the source give for `Cc1cc(Br)c2nc3c(c(C(=O)O)c2c1)CCCCC3` here?
A: inconclusive: 0.562 µM [inhibitor, partial curve, poor fit]

Q: Which Potency does the source give for `Cc1ccc(CC(=O)N2CCC(c3nc4c(nnn4Cc4ccccc4)c(=O)[nH]3)CC2)cc1` here?
A: inconclusive: 35.5 µM [inhibitor, single point]

Q: Which Potency does the source give for `NS(=O)(=O)c1ccc(CCNc2ncnc3c2c(-c2ccccc2)cn3-c2ccc(F)cc2)cc1` here?
A: inconclusive: 35.5 µM [inhibitor, single point]

Q: With `CCOC(=O)n1c(=O)oc2cc(S(=O)(=O)N3CCCCC3)ccc21` as the compound, how does the Potency read?
A: inactive

Q: For `CCCN1CCN(C(=O)c2nn(-c3ccc(OC)cc3)c(=O)c3c2c2ccccc2n3C)CC1`, which Potency is on record?
A: inactive

Q: With `Fc1ccc(N/N=C2/CCSc3sccc32)c(F)c1` as the compound, how does the activity change, negative = inhibition read?
A: inactive: -1.79% [at 9.22 µM]

Q: For `O=C1/C(=C/c2cccc3ccccc23)CCCc2ccccc21`, which Potency is on record?
A: inconclusive: 35.5 µM [inhibitor, single point]

Q: With `CC(C)(C)C(=O)NC(=S)Nc1sc2c(c1C#N)CCCCC2` as the compound, how does the Potency read?
A: inconclusive: 35.5 µM [activator, single point]

Q: Which Potency does the source give for `CCOC(=O)c1c(NC(=O)COC)sc(C(C)=O)c1C` here?
A: inactive

Q: Which Potency does the source give for `O=S(=O)(Nc1cccc2cccnc12)c1ccc(S(=O)(=O)N2CCCC2)cc1` here?
A: active: 0.794 µM

Q: With `Cc1occc1-c1nnc(SCC(=O)NCc2cccs2)n1CC1CCCO1` (stereo unspecified) as the compound, how does the Potency read?
A: inactive

Q: With `CCOC(=O)c1sc2nc(NC(=O)C3CC3)sc2c1C` as the compound, how does the Potency read?
A: inactive

Q: For `CN(C)C(=O)CSCc1c(Cl)cccc1Cl`, which Potency is on record?
A: inconclusive: 6.31 µM [activator, partial curve]

Q: Which Potency does the source give for `Cc1cc(NCCCN2CCOCC2)n2ncc(-c3ccc(Cl)cc3)c2n1` here?
A: inconclusive: 15.8 µM [inhibitor, single point]

Q: For `CCOC(=O)c1cc(-c2ccc(OC)cc2)nc2c1c(C)nn2CCC#N`, which Potency is on record?
A: inconclusive: 5.62 µM [inhibitor, single point]

Q: For `COc1ccc(-c2nnc3n(CCc4ccccc4)c(=O)c4ccccc4n23)cc1OC`, which Potency is on record?
A: inactive

Q: For `O=C(CCSc1ccc(Cl)cc1)NN=C1CCCCCC1`, which Potency is on record?
A: inactive

Q: Which Potency does the source give for `O=C(c1ccncc1)c1ccc(N2CCN(C3CC(=O)N(Cc4cccs4)C3=O)CC2)cc1` (stereo unspecified) here?
A: inconclusive: 17.8 µM [inhibitor, single point]

Q: With `CC(=O)Nc1cccc(OC(=O)c2ccoc2C)c1` as the compound, how does the Potency read?
A: inconclusive: 4.47 µM [inhibitor, single point]

Q: Which Potency does the source give for `Cn1c(-c2ccc(=O)[nH]c2)nc2ccccc21` here?
A: inactive

Q: Which Potency does the source give for `O=C(O)CSCc1cnn(-c2ccccc2)c1-n1cccc1` here?
A: inconclusive: 2.51 µM [inhibitor, partial curve]

Q: With `COc1cc(NC(=O)C23CC4CC(C2)CC(n2nnc(C)n2)(C4)C3)c(OC)cc1Cl` as the compound, how does the Potency read?
A: inconclusive: 10 µM [activator, single point]

Q: Which Potency does the source give for `COc1ccc(NC(=O)C(c2cc3c(cc2[N+](=O)[O-])OCO3)N2CCN(C=O)CC2)cc1` (stereo unspecified) here?
A: inactive

Q: Which Potency does the source give for `O=C(NN=C(Cc1ccccc1)Cc1ccccc1)c1ccccc1F` here?
A: inactive

Q: With `CCOC(=O)N1CCN(Cc2c(F)cccc2F)CC1` as the compound, how does the activity change, negative = inhibition read?
A: inactive: -4.2% [at 9.22 µM]

Q: With `CCCc1[nH]nc2c1C(c1ccc(O)c(OC)c1)C(C#N)=C(N)O2` (stereo unspecified) as the compound, how does the Potency read?
A: inactive

Q: For `COc1ccc(NS(=O)(=O)c2ccc3nc(COc4ccc(C#N)cc4)[nH]c3c2)cc1`, which Potency is on record?
A: inconclusive: 35.5 µM [inhibitor, single point]

Q: Which Potency does the source give for `COc1ccc(C(=O)CSc2nnnn2Cc2ccccc2)cc1` here?
A: inconclusive: 1.58 µM [inhibitor, full curve, poor fit]

Q: For `Cc1cccc(NC(=O)C2(c3ccccc3)CC2(Cl)Cl)c1` (stereo unspecified), which Potency is on record?
A: inconclusive: 3.98 µM [inhibitor, full curve, poor fit]

Q: For `COc1ccc(/C=N/n2c(-c3ccc(C)cc3)n[nH]c2=S)cc1OC`, which activity change, negative = inhibition is on record?
A: inactive: 15.2% [at 9.22 µM]

Q: With `Cc1ccc2nc(NC(=O)CN(C)S(=O)(=O)c3ccc(Br)s3)sc2c1` as the compound, how does the Potency read?
A: inconclusive: 35.5 µM [inhibitor, single point]

Q: Which Potency does the source give for `CCn1c2ccc(C)cc2c2nc3cc(C(=O)O)ccc3nc21` here?
A: inactive

Q: Which Potency does the source give for `O=C(c1ccc(-c2nnc(Nc3cccc(Cl)c3)c3ccccc23)cc1)N1C[C@H]2C[C@H](C1)c1cccc(=O)n1C2` here?
A: inconclusive: 5.62 µM [activator, single point]

Q: Which Potency does the source give for `Cc1ccc(C(=O)Nc2ccccc2-c2ccccc2)cc1S(=O)(=O)Nc1cccc(C)c1C` here?
A: inconclusive: 35.5 µM [inhibitor, single point]

Q: With `O=S(=O)(CCSc1nc2ccccc2s1)c1nc2ccccc2s1` as the compound, how does the Potency read?
A: inconclusive: 14.1 µM [inhibitor, single point]

Q: For `CC(=O)Nc1nc2ccc(-c3nc4ccccc4o3)cc2s1`, which Potency is on record?
A: inconclusive: 11.2 µM [inhibitor, partial curve]

Q: Which Potency does the source give for `Cc1cc(C2=NNC(=NC3CC3)SC2)c(C)n1-c1c(C)n(C)n(-c2ccccc2)c1=O` here?
A: inconclusive: 17.8 µM [activator, single point]

Q: With `CCN(CC)CCNC(=S)Nc1ccc2nc(N3CCCC3)cc(C)c2c1` as the compound, how does the Potency read?
A: inconclusive: 35.5 µM [inhibitor, single point]

Q: With `CSc1ccc(Cl)c(C(=O)Nc2ccc(Cl)cn2)c1` as the compound, how does the Potency read?
A: inconclusive: 1.26 µM [activator, single point]

Q: With `Cc1c(NC(=O)C(C)OC(=O)c2cc3c4ccccc4n(C)c3s2)c(=O)n(-c2ccccc2)n1C` (stereo unspecified) as the compound, how does the Potency read?
A: inconclusive: 0.562 µM [activator, single point]

Q: Which Potency does the source give for `Cc1ccc2nc3ccc(N4CCN(C)CC4)nn3c(=O)c2c1` here?
A: inactive

Q: Which Potency does the source give for `CCSc1nnc(NC(=O)c2csc3c2CCC(C)C3)s1` (stereo unspecified) here?
A: inconclusive: 0.562 µM [inhibitor, full curve, poor fit]

Q: For `CN(c1ccccc1)S(=O)(=O)c1ccc(C(=O)Nc2nnc(-c3ccco3)o2)cc1`, which Potency is on record?
A: inconclusive: 15.8 µM [inhibitor, single point]

Q: Which Potency does the source give for `CCN1C(=O)/C(=C2\C=Cc3cc(C)ccc3N2CC)OC1=S` here?
A: inactive

Q: With `COC(=O)CSc1nnc(-c2ccc(S(=O)(=O)N3CCCC3)cc2)n1C` as the compound, how does the Potency read?
A: inconclusive: 14.1 µM [inhibitor, single point]

Q: For `COc1cc(NC(=O)c2cc(Cl)ccc2Cl)ccc1-c1cc2ccccc2oc1=O`, which Potency is on record?
A: inactive

Q: With `CC(=O)Nc1ccc(NC(=O)CN(c2ccc([N+](=O)[O-])cc2)S(=O)(=O)c2ccccc2)cc1` as the compound, how does the Potency read?
A: inconclusive: 28.2 µM [activator, single point]

Q: With `Cc1nn(C)cc1CN(C)C(=O)CCc1nnc(CCC2CCCCC2)o1` as the compound, how does the activity change, negative = inhibition read?
A: inactive: 0% [at 9.22 µM]

Q: With `CC1=NN(c2ccccc2)C(=O)/C1=C/C=C/c1ccccc1` as the compound, how does the Potency read?
A: inconclusive: 35.5 µM [activator, single point]

Q: With `CN1/C(=C\C(=O)C[n+]2ccc3ccccc3c2)C(C)(C)c2ccccc21` as the compound, how does the Potency read?
A: inconclusive: 12.6 µM [inhibitor, partial curve]

Q: With `O=C(O)c1ccc(-c2nc(-c3ccccc3Cl)cs2)cc1` as the compound, how does the Potency read?
A: inactive

Q: For `O=C(Cc1ccccc1[N+](=O)[O-])N1CCN(c2ccccc2F)CC1`, which Potency is on record?
A: inactive

Q: Which Potency does the source give for `CCOc1cc(C)c(S(=O)(=O)NC2CCCCC2)cc1C` here?
A: inconclusive: 35.5 µM [inhibitor, single point]

Q: With `Cc1c(CN(C)C(=O)c2sc3cc(Cl)ccc3c2Cl)cnn1C` as the compound, how does the Potency read?
A: inconclusive: 35.5 µM [inhibitor, single point]

Q: For `Cc1cc(N)n(-c2ncnc3scc(-c4ccc(Cl)cc4)c23)n1`, which Potency is on record?
A: inactive

Q: With `O=C1CC(N2CCOCC2)C(=O)N1c1ccc(Cl)cc1` (stereo unspecified) as the compound, how does the activity change, negative = inhibition read?
A: inactive: -6.64% [at 9.22 µM]

Q: For `COc1ccc(C2CC(c3ccccc3)Nc3nc(NS(C)(=O)=O)nn32)cc1` (stereo unspecified), which activity change, negative = inhibition is on record?
A: inactive: 6.79% [at 9.22 µM]

Q: Which Potency does the source give for `Cc1ccc(NC(=O)CN(C)C(=O)Cn2cc(C(F)(F)F)ccc2=O)cc1` here?
A: inactive

Q: With `Cn1c2c(c(=O)n(C)c1=O)[C@@]1(C(=O)Nc3ccccc31)C(C#N)=C(N)O2` as the compound, how does the Potency read?
A: active: 12.6 µM

Q: Which Potency does the source give for `CC(C)c1cc(C(=O)NNC(=S)NCc2ccco2)c(O)c(C(C)C)c1` here?
A: inconclusive: 3.55 µM [inhibitor, full curve]

Q: With `O=C(Oc1ccc(C(=S)N2CCCCC2)cc1)c1ccccc1F` as the compound, how does the Potency read?
A: inconclusive: 35.5 µM [activator, single point]

Q: For `COc1ccc(CNC(=O)CN(CCC(C)C)S(=O)(=O)c2ccc3c(c2)OCCO3)cc1`, which Potency is on record?
A: inconclusive: 15.8 µM [inhibitor, single point]

Q: For `O=C(c1ccc(NC2=NC3CS(=O)(=O)CC3S2)cc1)N1CCc2ccccc2C1` (stereo unspecified), which Potency is on record?
A: inconclusive: 0.891 µM [activator, partial curve]

Q: For `CCOC(=O)/C(=C/C=C1\Sc2cc(OCC)c(OCC)cc2N1CC)C(C)=O`, which Potency is on record?
A: inconclusive: 3.55 µM [inhibitor, partial curve]

Q: For `C=C(C)CNC(=S)N/N=C/c1ccc([N+](=O)[O-])cc1`, which Potency is on record?
A: inconclusive: 31.6 µM [activator, single point]

Q: For `COCC(=O)OCC(=O)N1N=C(c2ccc(Cl)cc2)CC1c1ccco1` (stereo unspecified), which Potency is on record?
A: inconclusive: 0.447 µM [inhibitor, partial curve]

Q: Which Potency does the source give for `CC(=O)Nc1ccc(S(=O)(=O)N(Cc2ccco2)CC2CCCO2)cc1` (stereo unspecified) here?
A: inactive

Q: For `O=C(CN1C(=O)NC2(CCCC2)C1=O)Nc1ccccc1F`, which Potency is on record?
A: inactive

Q: With `COc1ccc(C2CCCN2C(=S)Nc2ccc(C)cc2Cl)cc1OC` (stereo unspecified) as the compound, how does the Potency read?
A: inactive

Q: For `O=C(C#Cc1cccc([N+](=O)[O-])c1)c1ccccc1`, which Potency is on record?
A: inconclusive: 35.5 µM [inhibitor, single point]

Q: With `CC(=O)Nc1ccc(S(=O)(=O)Oc2ccc(C(=S)N3CCCCC3)cc2)cc1` as the compound, how does the Potency read?
A: inconclusive: 15.8 µM [inhibitor, partial curve]
